Results: publication PMC4791683
These are yes or no findings as the source states them, for the method shown. Binding seen in cells or lysates may run through a third protein. Some results given as binding are weak or reduced against the parent protein; the word gives no strength.

Amino acid sequences for entries named in this document (tags omitted). Residues count along the entry.
UniProt P29117, residues 30-206: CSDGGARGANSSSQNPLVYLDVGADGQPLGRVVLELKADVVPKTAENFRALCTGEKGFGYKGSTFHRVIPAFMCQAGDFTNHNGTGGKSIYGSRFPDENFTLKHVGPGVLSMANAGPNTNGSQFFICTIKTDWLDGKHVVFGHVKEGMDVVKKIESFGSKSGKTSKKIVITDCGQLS

Assays:
[1] = biological target: T1, thioredoxin 2 (rat (endogenous in rat heart mitochondria)) (UniProt P97615); assay: co-IP; pre-reduced (TrxR1, NADPH) rat heart mitochondrial matrix (200 ug protein); immunoprecipitated with anti-Trx2 or anti-Prx3 monoclonal antibody and protein A/G PLUS-Agarose at 4 °C, 50 mM Tris/HCl pH 7.4, 50 mM NaCl; blot probed with monoclonal anti-CypD
T1 sequence: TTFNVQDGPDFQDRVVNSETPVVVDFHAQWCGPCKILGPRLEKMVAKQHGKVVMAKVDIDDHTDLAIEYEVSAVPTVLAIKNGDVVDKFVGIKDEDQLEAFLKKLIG

[2] = biological target: T2, peroxiredoxin 3 (rat (endogenous in rat heart mitochondria)) (UniProt Q9Z0V6); assay: as above
T2 sequence: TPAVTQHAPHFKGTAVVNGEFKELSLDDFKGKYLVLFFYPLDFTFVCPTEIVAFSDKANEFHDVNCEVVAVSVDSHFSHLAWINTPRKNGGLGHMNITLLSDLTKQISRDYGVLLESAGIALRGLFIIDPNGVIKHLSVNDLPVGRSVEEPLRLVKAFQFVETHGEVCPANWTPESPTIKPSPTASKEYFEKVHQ

[3] = biological target: cyclophilin D (rat (endogenous in rat heart mitochondria)) (UniProt P29117); assay: co-IP; reverse: pre-reduced rat heart mitochondrial matrix immunoprecipitated with an anti-CypD antibody, same procedure; Trx2 and Prx3 detected in the pull down

binding [1] | binding [2] | binding [3] | Molecule
binds | binds | – | cyclophilin D (from UniProt P29117 30-206)
– | – | binds | thioredoxin 2 (protein, UniProt P97615 60-166) TTFNVQDGPDFQDRVVNSETPVVVDFHAQWCGPCKILGPRLEKMVAKQHGKVVMAKVDIDDHTDLAIEYEVSAVPTVLAIKNGDVVDKFVGIKDEDQLEAFLKKLIG
– | – | binds | peroxiredoxin 3 (protein, UniProt Q9Z0V6 63-257) TPAVTQHAPHFKGTAVVNGEFKELSLDDFKGKYLVLFFYPLDFTFVCPTEIVAFSDKANEFHDVNCEVVAVSVDSHFSHLAWINTPRKNGGLGHMNITLLSDLTKQISRDYGVLLESAGIALRGLFIIDPNGVIKHLSVNDLPVGRSVEEPLRLVKAFQFVETHGEVCPANWTPESPTIKPSPTASKEYFEKVHQ
